These are yes or no findings as the source states them, for the method shown. For part of these data: Binding seen in cells or lysates may run through a third protein. Some results given as binding are weak or reduced against the parent protein; the word gives no strength. Each block holds one substance with its values, some of them ahead of it.
Columns and labels:
[1] = target: GST–profilin-1 (human) (UniProt P07737); experiment: pull-down; total-cell lysate (1 mg) of HEK293 cells transfected with YFP–CLIC4 (WT or mutants) incubated with GST or GST–profilin-1; blot with anti-GFP; only the target purified
[2] = target: GST–CLIC4 WT (UniProt Q9Y696); experiment: pull-down; purified immobilised GST–CLIC4 (WT or C35A) incubated with profilin-1 for 2 h on ice, blot with anti-profilin-1; reciprocal with GST–profilin-1 and CLIC4 WT or C35A; GST alone as control; both purified
[3] = target: GST–profilin-1 (human) (UniProt P07737); experiment: as above

The chains behind the UniProt entries cited, without tags or fusion partners. Where a name states a change or a piece, a line headed by the entry shows the natural chain unless it says otherwise. Residues count along the entry.
UniProt P07737, residues 2-140: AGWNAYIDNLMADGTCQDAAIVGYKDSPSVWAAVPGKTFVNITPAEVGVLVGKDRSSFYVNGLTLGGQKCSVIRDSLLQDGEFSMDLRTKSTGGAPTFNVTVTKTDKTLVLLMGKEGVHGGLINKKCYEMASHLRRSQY
UniProt Q9Y696: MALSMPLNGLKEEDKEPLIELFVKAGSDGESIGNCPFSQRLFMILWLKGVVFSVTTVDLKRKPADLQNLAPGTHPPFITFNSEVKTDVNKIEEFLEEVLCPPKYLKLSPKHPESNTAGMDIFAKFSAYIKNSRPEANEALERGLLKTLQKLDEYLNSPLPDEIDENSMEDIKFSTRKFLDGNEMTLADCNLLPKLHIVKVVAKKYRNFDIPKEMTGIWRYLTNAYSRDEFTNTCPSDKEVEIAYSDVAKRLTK

binding [1]: binds
Substance: YFP–CLIC4 (WT) (from UniProt Q9Y696 1-251)

binding [2]: binds
Substance: profilin-1 (from UniProt P07737 2-140)

binding [3]: binds
Substance: recombinant purified full-length CLIC4 (from UniProt Q9Y696 1-253)

— article PMC6302171
